In patent US20160102316A1, “STRESS TOLERANT PLANTS” (CONSEJO SUPERIOR DE INVESTIGACIONES CIENTIFICAS(CSIC), priority 2013, published 2016) one finds binding data, which are given here for one molecule.

These are yes or no findings as the source states them, for the method shown. Some results given as binding are weak or reduced against the parent protein; the word gives no strength.

Test [1] deals with T1, full length PYL4 (Arabidopsis) (UniProt O80920).
T1 sequence (looked up): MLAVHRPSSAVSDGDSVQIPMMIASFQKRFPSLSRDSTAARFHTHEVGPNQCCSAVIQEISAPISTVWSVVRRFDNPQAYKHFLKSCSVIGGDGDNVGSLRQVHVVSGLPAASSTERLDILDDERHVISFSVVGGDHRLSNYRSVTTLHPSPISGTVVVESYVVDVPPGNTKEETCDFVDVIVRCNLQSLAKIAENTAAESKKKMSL
The test is described as follows: in vivo; assay not described in the filing.

In test [2] the target is T2, full length PYL9 (Arabidopsis) (UniProt Q84MC7).
T2 sequence (looked up): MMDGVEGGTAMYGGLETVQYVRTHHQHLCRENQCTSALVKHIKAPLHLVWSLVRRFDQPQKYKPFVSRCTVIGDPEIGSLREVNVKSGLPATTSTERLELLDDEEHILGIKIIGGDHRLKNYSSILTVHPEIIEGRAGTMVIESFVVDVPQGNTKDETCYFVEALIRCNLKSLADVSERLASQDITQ
As to the kind of experiment: in vivo; assay not described in the filing.

B1: DDA1:YFPC (other)
chain: MASILGDLPSFDPHNFSQHRPSDPSNPSKMVPTTYRPTHNRTLPPPDQVITTEVKNILIRSFYQRAEEKLRPKRPATDHLAAEHVNKHFRAASSSSSTQGL
notes: BiFC construct expressed transiently in N. benthamiana leaves; also called DDA1 fusion with the C-portion of YFP; not shown: C-portion of the yellow fluorescent protein (YFP)
As for B1, the binding entry in test [1] and in test [2] was “binds” each time.
